The other results are listed elsewhere or left out.

From paper PMC7819943, “Rice protein-binding microarrays: a tool to detect cis-acting elements near promoter regions in rice” come the findings set out here.

The target of this assay is T1, OsSMF1 (Oryza sativa, UniProt Q6ZLB0 1-436).
T1 sequence: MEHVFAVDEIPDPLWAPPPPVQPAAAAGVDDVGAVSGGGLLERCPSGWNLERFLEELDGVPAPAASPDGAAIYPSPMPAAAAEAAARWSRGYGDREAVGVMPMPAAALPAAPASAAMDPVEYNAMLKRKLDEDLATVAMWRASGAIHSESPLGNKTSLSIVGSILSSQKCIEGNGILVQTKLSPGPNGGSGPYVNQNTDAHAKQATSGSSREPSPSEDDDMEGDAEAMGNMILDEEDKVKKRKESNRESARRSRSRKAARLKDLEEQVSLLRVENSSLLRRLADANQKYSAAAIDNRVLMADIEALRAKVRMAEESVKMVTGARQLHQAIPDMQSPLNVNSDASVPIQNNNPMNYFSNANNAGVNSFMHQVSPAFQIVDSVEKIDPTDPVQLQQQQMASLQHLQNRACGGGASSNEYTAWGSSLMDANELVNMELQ
Put plainly: protein-binding microarray (RPBM); PBS, 2% BSA, 51.3 ng/ul salmon testes DNA, 50 uM zinc acetate, 200 nM TF, 25 C, 1 h; high values mean tight binding. To be noted: protein: recombinant; tags: N-terminal polyhistidine and DsRed monomer fusion (pET32a); chain copies: 2; label: CyDye5-dUTP incorporated in the synthesized complementary strand; 3' TTTTT single-stranded linker to array surface; dsDNA, one strand shown. In short, it runs like this: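 The binding signal is fluorescence intensity per feature, in arbitrary units, read on an Axon 4000B scanner. Polyhistidine- and DsRed-tagged transcription factors (N-terminal fusions) from E. coli BL21-CodonPlus were purified on Ni–NTA and applied at 200 nM for 1 h at 25 °C to a double-stranded, BSA-blocked custom Agilent array in buffer with 50 µM zinc acetate.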
Consider “TTTTCGGATCAAATTGCCACGTAAGCGCCACGTCAGATGACGGAGTCACCTAGTGCAG”, for which the binding signal is 16000 fluorescence intensity (a.u.).

For “CGTCCCCTTTTATCTCATGGCCAAGGTGGCGCCATCTCCACGGAGTCACCTAGTGCAG”, the binding signal was 4570 fluorescence intensity (a.u.).

Turning to “CCTCAACGTGCCCCTCTTCCCTTCTGTTGATGTGGCTAGCCGGAGTCACCTAGTGCAG”, the binding signal was 3550 fluorescence intensity (a.u.). As to “CGAAGGGTACACAGACTTCAGACACCACGGCCACCTCAGCCGGAGTCACCTAGTGCAG”, the binding signal was 3720 fluorescence intensity (a.u.). Consider “TCCGGCCCGCCTGCCGGCGACGGCCGTGATGACGCGTCGGCGGAGTCACCTAGTGCAG”, for which the binding signal was 9740 fluorescence intensity (a.u.).

In the case of “TGGCCGCGACGGCCTCATGCTCGTCCACCTCGGCTCCGTCCGGAGTCACCTAGTGCAG”, the binding signal is 3620 fluorescence intensity (a.u.). For “GGAAAATATCTACGAAGTTCTACCGTAACGTGGCACCCAGCGGAGTCACCTAGTGCAG”, the binding signal is 4230 fluorescence intensity (a.u.). To “CACAACGGAGACACGAATTTTACGTGGAAAACCCTTACGGCGGAGTCACCTAGTGCAG” belongs 3190 fluorescence intensity (a.u.); to “TGTATTTGATCCTACGTATATCTATGAGCTGTTACTACTACGGAGTCACCTAGTGCAG”, 35800 fluorescence intensity (a.u.); to “CGAGATTCTCTGCATTACTGTGGCTGACATGTGGGCTCTACGGAGTCACCTAGTGCAG”, 3310 fluorescence intensity (a.u.).

For “CAAACGGAGGAGCAGGCCCCACGTCCACCACCACCTCATCCGGAGTCACCTAGTGCAG”, the binding signal was 4210 fluorescence intensity (a.u.). In the case of “GATGCGGGACCTCAGCAGTGCTGTACACGTGTCATCCATCCGGAGTCACCTAGTGCAG”, the binding signal is 23300 fluorescence intensity (a.u.). With “TACATATACGCTCGTCTCGCCGTCGCAACCTCGTCACCTACGGAGTCACCTAGTGCAG”, the binding signal was 4250 fluorescence intensity (a.u.). With “AGTTTCTCTATGGGTAACTTCGGTTTGAAAGTAGTCTGAGCGGAGTCACCTAGTGCAG”, the binding signal is 37300 fluorescence intensity (a.u.). In the case of “TAGATGCTTCTTTCCCTTGTCATTATGTTTTCTTCCCTGACGGAGTCACCTAGTGCAG”, the binding signal is 3180 fluorescence intensity (a.u.).

In the case of “GGAAGGGGTGACGTTCCCATTGTGATTCCCCTACGTTTGTCGGAGTCACCTAGTGCAG”, the binding signal was 3280 fluorescence intensity (a.u.). Consider “GGGTTGAGATGGGAGTAGAGGGGAGTGAGGTGGAAGAAGACGGAGTCACCTAGTGCAG”, for which the binding signal was 3800 fluorescence intensity (a.u.). The figure for “GTAAAACGAACCCTAGGTTTGCTTTCCCCTCTCCTCTCGTCGGAGTCACCTAGTGCAG” is 26000 fluorescence intensity (a.u.); for “TTGGGAGGGAGAGTGGTAAAGGGTGCTGGGGCTTTGGCTGCGGAGTCACCTAGTGCAG” it is 4250 fluorescence intensity (a.u.); for “AATAAATGTACATATGTATAATTAAAATCATCCATACTCACGGAGTCACCTAGTGCAG” it is 31700 fluorescence intensity (a.u.). As for “TGGAGAGATTACTGGTGTGATTCACCTGAAATGCCTCGGGCGGAGTCACCTAGTGCAG”, the binding signal is 4470 fluorescence intensity (a.u.). As for “TGGCGTCCACGTGCTACCCCAAACCCACCCACCCAGCGCTCGGAGTCACCTAGTGCAG”, the binding signal was 6990 fluorescence intensity (a.u.). “TCACACTCTGGCTATGACACATTTACAATTTTATCTTGGACGGAGTCACCTAGTGCAG”: the binding signal was 3740 fluorescence intensity (a.u.). To “TGTTGCTGTTGCTGCTGTGAAGAGCCGGGAGGGGTTGACGCGGAGTCACCTAGTGCAG” belongs 3460 fluorescence intensity (a.u.); to “CCCTTCACCACCGGTTTCGGTTCGTCGGCACCAAGCCCCTCGGAGTCACCTAGTGCAG”, 3300 fluorescence intensity (a.u.); to “CGACGCGGCCGCCACCTCCCCTGACGCTGTCAGAGAGTGGCGGAGTCACCTAGTGCAG”, 5900 fluorescence intensity (a.u.). Take “TCTCCCGCCTCGCCCCGTCAGTCTCCTCCCCACCCGCTGGCGGAGTCACCTAGTGCAG”: the binding signal was 4100 fluorescence intensity (a.u.).

Regarding “CTGCAAGTCCTCTCCGGCGTCCGCTTCTTTTCTCGCTTCTCGGAGTCACCTAGTGCAG”, the binding signal was 3210 fluorescence intensity (a.u.). As for “TGTAAAACTAGACACCATGACTAATGTCATGTATAACTAGCGGAGTCACCTAGTGCAG”, the binding signal was 3400 fluorescence intensity (a.u.). Take “CCTTTTCCCTCGCTTATGTTTGCACCCTGACCATAATGATCGGAGTCACCTAGTGCAG”: the binding signal is 3270 fluorescence intensity (a.u.). To “CGCTCGCCGCCCGCCGCCGACGGCGCGGCCGCGCTCTTCTCGGAGTCACCTAGTGCAG” belongs 3460 fluorescence intensity (a.u.).

On to “ATCGTCCTCTGCACCTGCACACATCATCACTGGGACAACCCGGAGTCACCTAGTGCAG”, for which the binding signal was 3920 fluorescence intensity (a.u.). As to “CTACACACGAGACGTGCAAACCTGCAGATTTTGTTACTTGCGGAGTCACCTAGTGCAG”, the binding signal was 4830 fluorescence intensity (a.u.). Take “CTTGCAGAGGTGGCGCTACAGCCGGCGTCCAGGCGTATGGCGGAGTCACCTAGTGCAG”: the binding signal was 3920 fluorescence intensity (a.u.). Take “GTCCAATAGAAGAAAGGTAGGCGGTAGAAGTACTGTGAACCGGAGTCACCTAGTGCAG”: the binding signal is 4000 fluorescence intensity (a.u.). Turning to “ACGAAAGCGCCGCCCGCCGCCGCGTCATCTCTTCTCTTCTCGGAGTCACCTAGTGCAG”, the binding signal is 10500 fluorescence intensity (a.u.). In the case of “TATATGTGGGACCCGTTTGTTATTCACACACACAAAATTGCGGAGTCACCTAGTGCAG”, the binding signal was 3750 fluorescence intensity (a.u.). Take “TAACTATATAAGTACACTTACATGTCATATCAACAGAATTCGGAGTCACCTAGTGCAG”: the binding signal was 3420 fluorescence intensity (a.u.).

For the sequence “TTCATCACAGTCTAGTACTTCTTGCACCTGCATCATCTGCCGGAGTCACCTAGTGCAG”, the binding signal was 3630 fluorescence intensity (a.u.). Consider “ATAGGTGAGCCTGAACATGAATGAGTCAGCGACGAGTGGACGGAGTCACCTAGTGCAG”, for which the binding signal is 10500 fluorescence intensity (a.u.).

With “GCAAAAGAGTGTTTCCCTATGCTGACGGCTCACGTCTTCTCGGAGTCACCTAGTGCAG”, the binding signal was 4020 fluorescence intensity (a.u.). As for “ATGCTAGCCGCGCAATCTGCGCGGGCCACCATACTAGTTTCGGAGTCACCTAGTGCAG”, the binding signal is 3160 fluorescence intensity (a.u.). “TTGTCTTCTCCCCGATGGCTAGAGTTATGACAGCGAGGGTCGGAGTCACCTAGTGCAG”: the binding signal was 4040 fluorescence intensity (a.u.).

On to “TATGTGGTATCTATAACTCTGACACATTATATGCAACTATCGGAGTCACCTAGTGCAG”, for which the binding signal was 3420 fluorescence intensity (a.u.).

For the sequence “AGATAGACAGAGGAAATACCTCGTTTCCCACGTGCACATTCGGAGTCACCTAGTGCAG”, the binding signal was 5420 fluorescence intensity (a.u.). To “CGCGTGAGCAGACTCCAACCTCTCACCTTAGTCACCTAGCCGGAGTCACCTAGTGCAG” belongs 3340 fluorescence intensity (a.u.); to “TCCACTAAACTGGTCCGTCACCCTCGCTGCCCGCTCTGAGCGGAGTCACCTAGTGCAG”, 27600 fluorescence intensity (a.u.). For the sequence “GCAAGCTCGAACTGCCCTAGTCTAAGAGCAAGGATAATAACGGAGTCACCTAGTGCAG”, the binding signal is 25800 fluorescence intensity (a.u.). “GGTCCACCCGAATCGGAGTCAGCCAGCCAAGCCACCTAATCGGAGTCACCTAGTGCAG”: the binding signal is 4780 fluorescence intensity (a.u.). “CGAAAATGGTTTGCTTCGTAGGATCGTTATTTTGCTTGTTCGGAGTCACCTAGTGCAG”: the binding signal is 3770 fluorescence intensity (a.u.). To “GCATTCTGAAGATCAACGTGTCTTTGAGTTTGAGAAAACACGGAGTCACCTAGTGCAG” belongs 3500 fluorescence intensity (a.u.); to “ATTTGTTCAGTGTACGTGATTCTCATCGCTGACAAACGCTCGGAGTCACCTAGTGCAG”, 10200 fluorescence intensity (a.u.).

As to “AAGCCAAAATTTGAATTTTCAAACTTAATTTTGATATTGACGGAGTCACCTAGTGCAG”, the binding signal was 26200 fluorescence intensity (a.u.). With “CCTGGGCCTCCTCAACGTCACCAGCGACGGCGACACGGGCCGGAGTCACCTAGTGCAG”, the binding signal was 3230 fluorescence intensity (a.u.).
